Paper PMC3188574
These are yes or no findings as the source states them, for the method shown. In cells and extracts the contact can be indirect. Some binding calls cover weakened binding; strength is not graded here. Sequences can lack the tags named with a protein.

Chains of the proteins cited; added tags and fusions are not shown. Residues count along the entry.
UniProt Q08850, residues 1-273: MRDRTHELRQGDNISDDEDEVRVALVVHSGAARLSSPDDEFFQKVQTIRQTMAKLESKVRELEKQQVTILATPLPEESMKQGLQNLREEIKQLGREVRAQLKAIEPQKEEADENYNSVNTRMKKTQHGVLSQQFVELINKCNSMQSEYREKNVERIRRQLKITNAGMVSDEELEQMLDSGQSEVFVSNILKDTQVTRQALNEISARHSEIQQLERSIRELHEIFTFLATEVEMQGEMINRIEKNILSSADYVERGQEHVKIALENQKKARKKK

Molecular target: GST-syntaxin-4 (1-273) (UniProt Q08850)
Experiment: pull-down; 10 µg GST or GST-syntaxin on Glutathione-Sepharose 4B beads, with 1 mg HEK293T lysate overexpressing tomosyn-1 or a tomosyn-2 isoform, 1% Triton lysis buffer, 2 h at 4°C, three washes; anti-myc blot; only the target purified

binding: binds
B1: xb-tomosyn-2-myc (protein, UniProt Q5DQR4 1-1185)
chain: MKKFNFRKVLDGLTASSPGSGSSSGSNSGGAGSGSVHPGGTAGLPREEIQESLTSDYFQICKTVRHGFPYQPTALAFDPVQKILAIGTRTGAIRILGRPGVDCYCQHESGAAVLQLQFLINEGALVSASSDDTLHLWNLRQKRPAILHSLKFNRERITYCHLPFQSKWLYVGTERGNTHIVNIESFILSGYVIMWNKAIELSTKTHPGPVVHLSDSPRDEGKLLIGYENGTVVFWDLKSKRAELRVYYDEAIHSIDWHHEGKQFMCSHSDGSLTLWNLKSPSRPFQTTVPHGKSQREGRKSESCKPILKVEYKTCRNSEPFIIFSGGLSYDKACRRPSLTIMHGKAITVLEMDHPIVEFLTLCETPYPNEFQEPYAVAVLLEKDLIVVDLTQTNFPIFENPYPMDIHESPVTCTAYFADCPPDLILVLYSIGVKHKKQGYSNKEWPVSGGAWNLGAQTYPEIIITGHADGTIKFWDASAMTLQMLYKLKTSKVFEKQKAGEGKQTCELVEEDPFAVQMIYWCPESRIFCVSGVSAYVIIYKFSRHEVTTEIVSLEVRLQCDVEDIITPEPETSPPFPDLSSQLPPSRSLSGSTNTVSSEGVTKDSIPCLSVKTRPVRMPPGYQADLVIQLVWVDGEPPQQITSLSISSAYGIVAFGNCTGLVVVDFIQKTVLLSMGTIDLYRSSDLYQRQPRSPRKNRQFIADNFCMRGLSNFYPDLTKRIRTSYQSLTELNDSPVPLELERCKSPTSDHVNGHCTSPTSQSCSSGKRLSSADVSKVNRWGPGRPPFRKAQSAACMEISLPVTTEETRENSYNRSRSSSISSIDKDSKEAITALYFMESFARKNDSTVSPCLFVGTSLGMVVLISLNLPSSDEQRFTEPVVVLPSGTFLSLKGAVLTFSCMDRTGSLMQPPYEVWRDPNNTDENEKTWKRKLVMNYSSSSQEMGDHQYTIICSEKQAKVFSLPSQTCLYVHNITETSFILQADVVVMCNSACLACFCANGHIMIMSLPSLRPMLDVNYLPLTDMRIARTFCFTNEGQALYLVSPTEIQRLTYSQEMCDNIQDMLGDLFTPIETPEAQNRGFLKGLFGGSGQTFDREELFGEASAGKASRSLAQHIPGPGSIEGMKGAAGGVMGELTRARIALDERGQRLGELEEKTAGMMTSAEAFSKHAHELMLKYKDKKWYQF
